Source: publication PMC5547389, “Structure-activity relationships and molecular docking studies of chromene and chromene based azo chromophores: A novel series of potent antimicrobial and anticancer agents” (EXCLI Journal, 2017)
In brackets after ≈: the same amount, converted by molar mass.

Tested on: Candida albicans (RCMB 05036)
Assay: MIC by serial dilution method
Assay type: cell-based
Settings: RCMB05036, fungi, read-out: Minimum inhibitory concentration, MIC, C.A
Description: All the newly synthesized compounds described in this report were screened for both antibacterial and antifungal activity via the reported agar diffusion well method (Vanden Berghe and Vlietinck, 1991[62]). The inhibition zones and minimum inhibitory concentrations (MIC) were determined by the serial dilution method (Cappuccino and Sherman, 1999[12]). The antimicrobial activity of the synthesized compounds was tested against a broad panel of microorganisms including two Gram-positive bacteria: Streptococcus pneumoniae (RCMB 010010) and Bacillus subtilis (RCMB 010067), two Gram-negative bacteria: Pseudomonas aeruginosa (RCMB 010043) and Escherichia coli (RCMB 010052), and four fungi: Aspergillus fumigatus (RCMB 02568), Syncephalastrum racemosum (RCMB 05922), Geotricum candidum (RCMB 05097), and Candida albicans (RCMB 05036). Ampicillin, ciprofloxacin, gentamicin and amphotericin B were used as positive control drugs (Atta-ur-Rahman and Thomsen, 2001[7]; Smania et al., 1999[57]). […] While in the case of Gm-ve bacteria, they had weak activity. In addition, certain strains of fungi were sensitive to tested compounds with an IZ range from 12-25 except Candida albicans.

MIC: 0.12 µg/mL (≈ 0.13 µM)
SMILES: C[C@@H]1[C@H](O)[C@@H](C)/C=C/C=C/C=C/C=C/C=C/C=C/C=C/[C@H](O[C@@H]2O[C@H](C)[C@@H](O)[C@H](N)[C@@H]2O)C[C@@H]2O[C@](O)(C[C@@H](O)C[C@@H](O)[C@H](O)CC[C@@H](O)C[C@@H](O)CC(=O)O[C@H]1C)C[C@H](O)[C@H]2C(=O)O [Amphotericin B, reference compound]
